Laboratory results reported in PubChem BioAssay AID1347426 (Functional Genomics Laboratory (NCATS/FGL), 2020).
About 1,400 (4.5%) of roughly 31,000 sequences were called active.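 Rule for the calls: active = median seed-adjusted z-score above 1 or below -1; inactive = the rest.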 The list shows a part of the results.

Test: Novel Modifiers of Survival Motor Neuron (SMN) Protein: Gene Identification via Genome-wide siRNA Screen;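 note: luminescence tracks full-length SMN protein made from the SMN2 reporter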
Conditions: HEK293T SMN2-luciferase reporter, siRNA knockdown, 72 h; actives lie on both sides
Method in brief: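 HEK293T cells stably carrying an SMN2 promoter/splicing cassette–luciferase reporter were reverse-transfected with 1 pmol siRNA per well (druggable-genome library, 3 siRNAs per gene) and grown 72 h at 37 °C. Luminescence, normalized to negative-control siRNA and log10-transformed, was scored as MAD.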

Sequence	median seed-adjusted z-score
ACGACAACCUGAGCAAGAATT against GJB4	inactive: 0.131
GGAGUUCAAUUGUCACCAUTT against IGF1R	inactive: -0.358
CAGGAUAUCUGCUAAGAAATT against FARP2	inactive: -0.0358
GCCCAGGAAAGAUAAGGCATT against PTH1R	inactive: -0.521
GCUACUUACCCACUACUAUTT against ACSL6	inactive: -0.0934
GGGAUUACCUAGAAAAAUATT against NNMT	inactive: -0.095
GGGUACAACUCUUUGAAGATT against MNAT1	inactive: -0.335
GCGAGAAUCCUGACCACAATT against TSPYL2	inactive: 0.0187
GAUGCGAUAUUAAUGGGAATT against SMYD4	inactive: 0.272
GGAGAAACAGUGUACUAUUTT against IL20RB	inactive: -0.413
GCAUAUAGUUGGAAAGAGATT against ASCC1	inactive: -0.00853
GGACAUCUCUGUGGAAGAATT against ACTN3	inactive: -0.109
GAUGAUUACCUGCAGAGCATT against MYD88	inactive: -0.365
GGAAUUUUUCGGGUGGUUATT against ELF5	inactive: -0.45
AGAUAGCCCUGGAUAAGAATT against STK10	inactive: 0.0138
GGCAGGAGGUUUAAGAAGUTT against PPP3R2	inactive: -0.143
GCACCGAUCUCAAAGUCCATT against PLA1A	inactive: 0.197
GCAAUGUUGUGGGACACUATT against SLC30A1	inactive: 0.314
CCAAGUGCCGAAAAAGGAATT against JUN	inactive: 0.381
CAAGAAAACUGCGAAUAAATT against STX2	inactive: 0.442
AGUCCAAUGCAGGUCUUUATT against IGSF1	inactive: 0.258
CGUCAUCGCUCAGACCUUATT against ZNF623	inactive: 0.272
AUUUCCUUAUUUACGAGUATT against SCN3B	inactive: 0
CAGUUGAAGCAAUACACUUTT against RGS6	inactive: -0.904
GGUUACCUUCCUUCAAUUATT against CCRN4L	inactive: -0.572
UCAUUGACCUUAACAAGAATT against PHYHIP	inactive: 0.18
GCUCGGAUAUGCUCCAGGATT against TMPRSS5	active: 1.25
GAGAUUCAAAGAAUAGUAATT against RASSF6	inactive: -0.592
GCCUAGCUCCUACUUAUGATT against DDX25	inactive: 0
GGUGGUACAAUGUCACUGATT against SPINT2	inactive: 0.00974

Another view of part of the listing above.
GCUCGGAUAUGCUCCAGGATT against TMPRSS5
  median seed-adjusted z-score: active: 1.25
GAGAUUCAAAGAAUAGUAATT against RASSF6
  median seed-adjusted z-score: inactive: -0.592
